These are yes or no findings as the source states them, for the method shown. Some binding calls cover weakened binding; strength is not graded here. Sequences can lack the tags named with a protein.
Target: T1, mIL-18Rα subunit fused to an Fc domain (mouse) (UniProt Q61098)
T1 sequence: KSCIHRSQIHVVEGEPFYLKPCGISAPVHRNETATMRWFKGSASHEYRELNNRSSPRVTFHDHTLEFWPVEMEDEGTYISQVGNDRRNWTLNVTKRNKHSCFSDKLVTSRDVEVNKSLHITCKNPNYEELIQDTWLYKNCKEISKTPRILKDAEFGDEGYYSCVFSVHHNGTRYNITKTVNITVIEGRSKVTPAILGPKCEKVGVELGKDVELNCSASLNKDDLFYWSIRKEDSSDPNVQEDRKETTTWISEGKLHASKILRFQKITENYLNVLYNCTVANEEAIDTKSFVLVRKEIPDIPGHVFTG
Experiment: BLI; Octet RED96, 25 °C, 1000 rpm; mIL-18Rα fused to Fc immobilised, RMP-IL-18mutE4 or mIL-18 as analyte in kinetics buffer; both purified

binding: binds
B1: wild type mIL-18 (ligand, UniProt P70380 36-192)
chain: NFGRLHCTTAVIRNINDQVLFVDKRQPVFEDMTDIDQSASEPQTRLIIYMYKDSEVRGLAVTLSVKDSKMSTLSCKNKIISFEEMDPPENIDDIQSDLIFFQKRVPGHNKMEFESSLYEGHFLACQKEDDAFKLILKKKDENGDKSVMFTLTNLHQS
